Results as given in publication PMC3044668.
Results are given in words; binding and its absence hold for the method and conditions named. Binding seen in cells or lysates may run through a third protein. Sequences can lack the tags named with a protein.

Target: Xpress-tagged BcrΔoligo (UniProt P11274)
Assay: cross-linking; enzymatic cross-linking by TG2 in cell lysates (50 ug) in transglutaminase assay buffer (50 mM Tris pH 8.0, 150 mM NaCl, 1% Triton X-100, 1 mM DTT) with or without 5 mM CaCl2, 2 h at 37 °C; TG2 co-transfected or guinea pig TG2 added; high molecular weight Bcr seen by Western blot

binding: no binding
B1: Xpress-tagged BcrΔoligo (protein, UniProt P11274)
chain: MAKEKKSYDRQRWGFRRAAQAPDGASEPRASASRPQPAPADGADPPPAEEPEARPDGEGSPGKARPGTARRPGAAASGERDDRGPPASVAALRSNFERIRKGHGQPGADAEKPFYVNVEFHHERGLVKVNDKEVSDRISSLGSQAMQMERKKSQHGAGSSVGDASRPPYRGRSSESSCGVDGDYEDAELNPRFLKDNLIDANGGSRPPWPPLEYQPYQSIYVGGMMEGEGKGPLLRSQSTSEQEKRLTWPRRSYSPRSFEDCGGGYTPDCSSNENLTSSEEDFSSGQSSRVSPSPTTYRMFRDKSRSPSQNSQQSFDSSSPPTPQCHKRHRHCPVVVSEATIVGVRKTGQIWPNDGEGAFHGDADGSFGTPPGYGCAADRAEEQRRHQDGLPYIDDSPSSSPHLSSKGRGSRDALVSGALESTKASELDLEKGLEMRKWVLSGILASEETYLSHLEALLLPMKPLKAAATTSQPVLTSQQIETIFFKVPELYEIHKEFYDGLFPRVQQWSHQQRVGDLFQKLASQLGVYRAFVDNYGVAMEMAEKCCQANAQFAEISENLRARSNKDAKDPTTKNSLETLLYKPVDRVTRSTLVLHDLLKHTPASHPDHPLLQDALRISQNFLSSINEEITPRRQSMTVKKGEHRQLLKDSFMVELVEGARKLRHVFLFTDLLLCTKLKKQSGGKTQQYDCKWYIPLTDLSFQMVDELEAVPNIPLVPDEELDALKIKISQIKNDIQREKRANKGSKATERLKKKLSEQESLLLLMSPSMAFRVHSRNGKSYTFLISSDYERAEWRENIREQQKKCFRSFSLTSVELQMLTNSCVKLQTVHSIPLTINKEDDESPGLYGFLNVIVHSATGFKQSSNLYCTLEVDSFGYFVNKAKTRVYRDTAEPNWNEEFEIELEGSQTLRILCYEKCYNKTKIPKEDGESTDRLMGKGQVQLDPQALQDRDWQRTVIAMNGIEVKLSVKFNSREFSLKRMPSRKQTGVFGVKIAVVTKRERSKVPYIVRQCVEEIERRGMEEVGIYRVSGVATDIQALKAAFDVNNKDVSVMMSEMDVNAIAGTLKLYFRELPEPLFTDEFYPNFAEGIALSDPVAKESCMLNLLLSLPEANLLTFLFLLDHLKRVAEKEAVNKMSLHNLATVFGPTLLRPSEKESKLPANPSQPITMTDSWSLEVMSQVQVLLYFLQLEAIPAPDSKRQSILFSTEV
